Reference: PubChem BioAssay AID504444 (National Center for Advancing Translational Sciences (NCATS), 2011)
Out of some 360,000 compounds screened, about 7,500 (2.1%) were called active. Inconclusive means that the source gave no clear call. Such entries were picked first, then a sample of the others. Calls come from the whole dose curve; as a rule, active = well fitted inhibition curve with a large enough effect; inconclusive = small, poorly fitted or top-dose-only effect, or effect the other way; inactive = flat fitted curve, though single readings scatter. A potency beside an inconclusive call is a rough fit, not a confirmed value.

Assay: Nrf2 qHTS screen for inhibitors; note: nearly all actives have a fitted effect of over 60% in size
Conditions: A549 ARE-Fluc reporter, luciferase luminescence, 18-24 h; activity change, negative = inhibition: at 46 µM (top of the series)
Outline: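 Nrf2 activity is the BugLite luminescence, read 15 min after reagent at room temperature, following CellTiter-Fluor cytotoxicity readout (30 min, 37C). Compound titrations were applied for 18-24 h to 5000 A549 ARE_Fluc cells/well in 5% FBS OPTI-MEM.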
% is set by controls: 0 for no effect and ±100 for the full control effect; potency is the fitted concentration of half-maximal effect.

| SMILES | Potency | activity change, negative = inhibition |
| --- | --- | --- |
| COCCn1c(-c2cccc([N+](=O)[O-])c2)nc2c1c(=O)[nH]c(=O)n2Cc1ccccc1 | inconclusive: 10.3 µM [falling, partial curve] |  |
| CCN(CC)C(=O)c1sc(NC(=O)C(Sc2ccccc2)c2ccccc2)c(C(=O)OC(C)C)c1C (stereo not given) | inconclusive: 18.4 µM [falling, partial curve, poor fit] |  |
| CCN(CC)c1ccc(/C=N/n2c(=S)[nH]nc(C)c2=O)cc1 | inconclusive: 23.1 µM [activator, partial curve, poor fit] |  |
| Cn1c2ccccc2c2c(C(=O)NCc3ccco3)cn(C3CCCCC3)c(=O)c21 | inactive |  |
| CCCCn1c(SCC(=O)Nc2cc(C)[nH]n2)nc2ccsc2c1=O | inconclusive: 9.2 µM [falling, partial curve, poor fit] |  |
| COc1cc(NC(=O)Cn2cnc3sc(C)c(S(=O)(=O)N4CCC(C)CC4)c3c2=O)cc(OC)c1OC |  | inactive: 1.19% [at 9.27 µM] |
| CC1(C)CC(=O)c2cnc(N3CCN(c4ccccc4)CC3)nc2C1 | inactive |  |
| O=C(COc1ccccc1F)Nc1ccc2nc(SCC(=O)N3CCCC3)sc2c1 | inconclusive: 29.1 µM [falling, single point] |  |
| COc1cc(C(=O)NCc2cccnc2)ccc1OCC(=O)Nc1cccc(C(F)(F)F)c1 | active: 6.51 µM |  |
| CCOC(=O)c1c(C)[nH]c(C(=O)OCC(=O)NC(C)(C)C)c1C | active: 18.4 µM |  |
| O=C(O)CCN1C(=O)c2ccc(NC(=O)COc3ccccc3)cc2C1=O | inactive |  |
| COc1ccc(C(=O)NCCn2cc(SCC(=O)Nc3ccc(F)cc3)c3ccccc32)cc1 | inconclusive: 14.6 µM [falling, single point] |  |
| O=C(NCc1ccccc1)C1=C[C@@H](c2ccc(Br)cc2)C[C@@H](OCc2ccc(CO)cc2)O1 | inconclusive: 29.1 µM [falling, single point] |  |
| O=C(c1cccs1)N1CCC(c2ccccc2)C1 (stereo not given) | inconclusive: 7.31 µM [activator, partial curve] |  |
| CNC(=O)c1cc(Oc2ccc(NC(=O)Nc3ccc(Cl)c(C(F)(F)F)c3)cc2)ccn1 | active: 25.9 µM |  |
| CCc1ccccc1N=C1S/C(=C/c2ccccc2OCC(=O)N2CCOCC2)C(=O)N1C | inconclusive: 23.1 µM [falling, single point] |  |
| Cc1ccc(S(=O)(=O)Nc2ccc3nc(N)sc3c2)cc1 | active: 7.31 µM |  |
| O=C(c1cccc(S(=O)(=O)NCc2ccccc2)c1)N1CCCC(C(F)(F)F)C1 (stereo not given) | inconclusive: 18.4 µM [falling, partial curve, poor fit] |  |
| Cc1c(NC(=O)c2cccnc2)c(=O)n(-c2ccccc2)n1C | inconclusive: 10.3 µM [activator, partial curve] |  |
| CCOC(=O)c1sc(NC(=O)Nc2ccc(Cl)cc2)nc1C | inconclusive: 2.59 µM [activator, single point] |  |
| O=C(NNC(=O)c1ccccc1OCc1ccccc1)c1ccccc1F | inconclusive: 14.6 µM [activator, partial curve] |  |
| CCN(c1ccc2c(c1)OCO2)S(=O)(=O)c1cc(Br)cc2c1N(C(=O)C1CC1)CC2 | inconclusive: 29.1 µM [falling, single point] |  |

| SMILES | Potency | activity change, negative = inhibition |
| --- | --- | --- |
| COc1ccc(C2=C(C=Nc3c(C)n(C)n(-c4ccccc4)c3=O)C(c3ccccc3C)c3ccccc3O2)cc1OC (stereo not given) | inconclusive: 4.47 µM [falling, full curve] |  |
| CCN1CCN(CCCNC(=O)c2cc3c(=O)n(C)c4ccccc4c3s2)CC1 | inactive |  |
| Cc1sc2nc(CN(Cc3ccccc3)C(=O)NC3CCCCC3)[nH]c(=O)c2c1C | inconclusive: 29.1 µM [falling, single point] |  |
| O=C(NCCc1ccccc1)c1cnc2sc(N3CCCC3)nn2c1=O | inconclusive: 14.6 µM [falling, partial curve, poor fit] |  |
| Cc1ccc(Nc2nc(-c3sc(NC(=O)c4ccco4)nc3C)cs2)cc1 | inconclusive: 20.6 µM [activator, single point] |  |
| O=C(c1cc(-c2ccccc2)on1)N1CCCc2ccccc21 | inactive |  |
| Cc1ccc(C(=O)NC(C)CCc2ccccc2)cc1S(=O)(=O)N1CCOCC1 (stereo not given) | inconclusive: 25.9 µM [falling, partial curve, poor fit] |  |
| Cc1cccc(OCCn2c(-c3ccc(Cl)cc3)nc3ccccc3c2=O)c1 | inactive |  |
| Cc1ccccc1C(=O)O/N=C(\N)c1ccncc1 | inconclusive: 9.2 µM [activator, partial curve] |  |
| CC(C)(C)C1CCC(=NNc2nc3ccccc3[nH]2)CC1 (stereo not given) | inconclusive: 25.9 µM [activator, partial curve, poor fit] |  |
| O=C(/C(=N/N=C/c1ccc(O)c(O)c1)c1ccccc1)c1ccccc1 | inactive |  |
| CC(C)OCCCNC(=O)Cc1ccc(Br)cc1 | inconclusive: 8.2 µM [activator, partial curve] |  |
| COc1ccc(-c2ccccc2[C@H]2[C@@H]3C=CC[C@@H](C)[C@@H]3C(=O)N2Cc2ccccc2)cc1 | active: 18.4 µM |  |
| Cc1ccccc1-c1nc(CS(=O)(=O)CC(=O)NCC(C)c2ccccc2)c(C)o1 (stereo not given) | inactive |  |
| COc1cc(OC)c(NC(=O)C2CCCN(c3ncnc4c3nc3n4CCCCC3)C2)cc1Cl (stereo not given) | inconclusive: 8.2 µM [activator, partial curve, poor fit] |  |
| O=C(COc1ccccc1Cl)NCC1(N2CCOCC2)CCCCC1 | inactive |  |
| CCCCCCC(=O)N(O)C1CC(=O)N(c2ccc(F)cc2)C1=O (stereo not given) | inactive |  |
| COc1ccccc1N1CCN(c2ncc(C(=O)N3CCN(c4cccc(Cl)c4)CC3)c3ccccc23)CC1 | inconclusive: 1.46 µM [falling, partial curve, poor fit] |  |
| NS(=O)(=O)c1cc(C(=O)NCCOc2ccccc2)c(Cl)cc1Cl | inconclusive: 9.2 µM [falling, partial curve, poor fit] |  |
| COc1ccc2c(c1)C(C)CC(C)(C)N2C(=O)NC1CCCCC1 (stereo not given) | inconclusive: 29.1 µM [activator, single point] |  |
| Cc1ccc(-c2nc3ncccc3o2)cc1NC(=O)COc1ccccc1 | inconclusive: 1.46 µM [falling, partial curve, poor fit] |  |
| O=C(NC1CCCCCCC1)c1cc(F)c(F)cc1Cl | inconclusive: 14.6 µM [activator, partial curve] |  |

2 of the compounds above, as comma-separated lines:
SMILES,Potency,"activity change, negative = inhibition"
O=C(c1cccs1)N1CCC(c2ccccc2)C1 (stereo not given),"inconclusive: 7.31 µM [activator, partial curve]",
CNC(=O)c1cc(Oc2ccc(NC(=O)Nc3ccc(Cl)c(C(F)(F)F)c3)cc2)ccn1,active: 25.9 µM,

2 entries picked at random from those above, as already listed:

| SMILES | Potency | activity change, negative = inhibition |
| --- | --- | --- |
| Cc1ccc(C(=O)NC(C)CCc2ccccc2)cc1S(=O)(=O)N1CCOCC1 (stereo not given) | inconclusive: 25.9 µM [falling, partial curve, poor fit] |  |
| CC(C)(C)C1CCC(=NNc2nc3ccccc3[nH]2)CC1 (stereo not given) | inconclusive: 25.9 µM [activator, partial curve, poor fit] |  |

Following part.

| SMILES | Potency | activity change, negative = inhibition |
| --- | --- | --- |
| Cn1c2c(c(=O)n(C)c1=O)C(C(F)(F)F)(C(F)(F)F)N=C(c1ccc(Cl)cc1)N2 | active: 2.31 µM |  |
| O=S(=O)(Nc1ncnc2scc(-c3ccc(F)cc3)c12)c1cc(F)ccc1F | inactive |  |
| CCN1CCN(S(=O)(=O)c2ccc3c(c2)NC(=O)CS3)CC1 | inconclusive: 10.3 µM [activator, partial curve, poor fit] |  |
| Cc1ccccc1Nc1nc(N)nc(CSCc2c(C)noc2C)n1 | inconclusive: 23.1 µM [falling, partial curve, poor fit] |  |
| Nc1nnc(SCCOc2ccc(Br)cc2)s1 | inconclusive: 2.31 µM [activator, partial curve, poor fit] |  |
| COc1ccc([C@H]2[C@H]3C=CC[C@@H](C)[C@@H]3C(=O)N2Cc2ccccc2)cc1Cl | inconclusive: 5.17 µM [falling, full curve, poor fit] |  |
| CC1(C)Oc2ccc3ccc(=O)oc3c2/C(=C/Nc2ccccc2)C1=O | inconclusive: 25.9 µM [falling, single point] |  |
| O=C(CCn1nc(-c2ccc(Cl)cc2)c2ccccc2c1=O)Nc1cccnc1 | inconclusive: 20.6 µM [falling, partial curve, poor fit] |  |
| Cn1cccc1C(=O)NC1CCCCC1 | inconclusive: 23.1 µM [activator, single point] |  |
| CCOC(=O)C1=CN(Cc2cccc(-c3cccnc3)c2)S(=O)(=O)N(C)C1C (stereo not given) | inconclusive: 18.4 µM [falling, single point] |  |
| Cc1ccc(C)c(Cn2cnc3c(nnn3-c3ccc(F)cc3)c2=O)c1 | inconclusive: 20.6 µM [falling, partial curve, poor fit] |  |
| Cc1ccc(OCCNC(=O)c2ccc(NC(=O)CC3SC(N4CCCC4)=NC3=O)cc2)cc1 (stereo not given) | inconclusive: 0.291 µM [falling, full curve, poor fit] |  |
| CC(C)N(Cc1nc(-c2ccccc2)no1)C(=O)CCCN1C(=O)c2ccccc2C1=O | inactive |  |
| COc1ccc(CNc2oc(-c3ccccc3)nc2C#N)cc1 | inconclusive: 4.61 µM [falling, partial curve, poor fit] |  |
| COC(=O)c1cc2nc(-c3ccc(C)cc3)cc(C(F)(F)F)n2n1 | inconclusive: 3.66 µM [activator, partial curve] |  |
| CC(=O)c1c(C)nc2nc(-c3ccccc3)nn2c1C | inconclusive: 2.91 µM [activator, partial curve] |  |
| O=c1ccc(NS(=O)(=O)c2ccc(Cl)cc2)cn1Cc1ccc(Cl)c(Cl)c1 | inconclusive: 20.6 µM [falling, partial curve, poor fit] |  |
| N#Cc1c(-c2ccccc2)nc(SCC(=O)NC2CCCCC2)[nH]c1=O | inconclusive: 23.1 µM [falling, single point] |  |
| Cc1ccnc2nc(C(=O)Nc3nc4ccccc4s3)nn12 | inconclusive: 5.17 µM [activator, full curve] |  |
| Cn1cnc2c(NCc3ccccc3)nc(Cl)nc21 | inactive |  |
| CCCCn1c(=O)[nH]c(=O)c2c1nc(-c1ccc(OCCC)c(OCC)c1)n2CCOC | inconclusive: 20.6 µM [falling, partial curve] |  |
